According to publication PMC9640553:
These are yes or no findings as the source states them, for the method shown. In cells and extracts the contact can be indirect. Binding calls can cover weak binding; strength is not graded here.

Molecular target: ΔIMS-ATAD3-HA
Assay: co-IP; steady state; 500 µg total protein extract in IP buffer (HEPES KOH pH 7.2, 150 mM NaCl, 1 mM MgCl2, 1% Triton), anti-V5, anti-VPS35 or anti-HA overnight at 4 °C, Protein-G agarose, western blot

B1: SAMM50 (protein, UniProt Q8BGH2 1-469)
chain: MGTVHARSLEPLPSSGTDFGALGEEAEFVEVEPEAKQEILENKDVVVQHVHFDGLGRTKDDIIICEIGEVFKAKNLIEVMRRSHEAREKLLRLGIFRQVDVLIDTCHGEDALPNGLDVTFEVTELRRLTGSYNTMVGNNEGSMVLGLKLPNLLGRAEKVTFQFSYGTKETSYGLSFFKPQPGNFERNFSVNLYKVTGQFPWSSLRETDRGVSAEYSFPLWKTSHTVKWEGVWRELGCLSRTASFAVRKESGHSLKSSLSHAMVIDSRNSSILPRRGALFKVNQELAGYTGGDVSFIKEDFELQLNKPLALDSVFSTSLWGGMLVPIGDKPSSIADRFYLGGPTSVRGFSMHSIGPQSEGDYLGGEAYWAGGLHLYTPLPFRPGQGGFGELFRTHFFLNAGNLCNLNYGEGPKAHIRKLAECIRWSYGAGVVLRLGNIARLELNYCIPMGVQGGDRICDGVQFGAGIRFL
binding: binds
